Here are results for one molecule from PMC12295313 (2025).

Results are given in words; binding and its absence hold for the method and conditions named. Some results given as binding are weak or reduced against the parent protein; the word gives no strength. Tags and fused reporters may be left off the sequences shown.

The experiment has as its target T1, FGFR1c ectodomain (extracellular ligand-binding domain of FGFR1c), P11362.
T1 chain: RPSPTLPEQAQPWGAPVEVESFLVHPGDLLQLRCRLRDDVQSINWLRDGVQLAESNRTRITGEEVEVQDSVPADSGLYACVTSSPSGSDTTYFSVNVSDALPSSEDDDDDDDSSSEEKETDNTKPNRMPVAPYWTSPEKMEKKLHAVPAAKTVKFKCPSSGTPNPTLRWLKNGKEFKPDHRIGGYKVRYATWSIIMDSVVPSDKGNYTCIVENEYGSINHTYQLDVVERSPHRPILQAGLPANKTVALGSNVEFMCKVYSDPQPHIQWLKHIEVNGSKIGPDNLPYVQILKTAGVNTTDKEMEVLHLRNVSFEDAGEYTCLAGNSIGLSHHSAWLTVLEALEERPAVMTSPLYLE
The experiment can be described thus: SPR; Biacore T200; ligand-binding region of FGFR1c amine-coupled to a CM5 chip; FGF21^WT or FGF21^D2D3 injected at increasing concentrations for 180 s at 50 uL/min; HBS-EP buffer (10 mM HEPES-NaOH pH 7.4, 150 mM NaCl, 3 mM EDTA, 0.005% Surfactant P20); Kd from fitted saturation binding curves; both purified. The conditions noted are these: remark: other sources report otherwise.

B1: Recombinant human wild-type FGF21 (His29-Ser209), Q9NSA1 29-209 (protein)
chain: HPIPDSSPLLQFGGQVRQRYLYTDDAQQTEAHLEIREDGTVGGAADQSPESLLQLKALKPGVIQILGVKTSRFLCQRPDGALYGSLHFDPEACSFRELLLEDGYNVYQSEAHGLPLHLPGNKSPHRDPAPRGPARFLPLPGLPPALPEPPGILAPQPPDVGSSDPLSMVGPSQGRSPSYAS
Turning to B1, the binding entry was “binds”.
